These are yes or no findings as the source states them, for the method shown.
Molecular target: GST-full length Alix (UniProt Q8WUM4)
Experiment: co-sedimentation; 15–45% glycerol gradient ultracentrifugation with micro-fractionation; 20 mM Tris–HCl pH 7.6, 150 mM NaCl; 55,000 r.p.m., 8 h (also 12 h), 4 °C; fractions on SDS gels stained with SYPRO Ruby, densitometry; both purified

The chains behind the UniProt entries cited, without tags or fusion partners. Residues count along the entry.
UniProt Q8WUM4: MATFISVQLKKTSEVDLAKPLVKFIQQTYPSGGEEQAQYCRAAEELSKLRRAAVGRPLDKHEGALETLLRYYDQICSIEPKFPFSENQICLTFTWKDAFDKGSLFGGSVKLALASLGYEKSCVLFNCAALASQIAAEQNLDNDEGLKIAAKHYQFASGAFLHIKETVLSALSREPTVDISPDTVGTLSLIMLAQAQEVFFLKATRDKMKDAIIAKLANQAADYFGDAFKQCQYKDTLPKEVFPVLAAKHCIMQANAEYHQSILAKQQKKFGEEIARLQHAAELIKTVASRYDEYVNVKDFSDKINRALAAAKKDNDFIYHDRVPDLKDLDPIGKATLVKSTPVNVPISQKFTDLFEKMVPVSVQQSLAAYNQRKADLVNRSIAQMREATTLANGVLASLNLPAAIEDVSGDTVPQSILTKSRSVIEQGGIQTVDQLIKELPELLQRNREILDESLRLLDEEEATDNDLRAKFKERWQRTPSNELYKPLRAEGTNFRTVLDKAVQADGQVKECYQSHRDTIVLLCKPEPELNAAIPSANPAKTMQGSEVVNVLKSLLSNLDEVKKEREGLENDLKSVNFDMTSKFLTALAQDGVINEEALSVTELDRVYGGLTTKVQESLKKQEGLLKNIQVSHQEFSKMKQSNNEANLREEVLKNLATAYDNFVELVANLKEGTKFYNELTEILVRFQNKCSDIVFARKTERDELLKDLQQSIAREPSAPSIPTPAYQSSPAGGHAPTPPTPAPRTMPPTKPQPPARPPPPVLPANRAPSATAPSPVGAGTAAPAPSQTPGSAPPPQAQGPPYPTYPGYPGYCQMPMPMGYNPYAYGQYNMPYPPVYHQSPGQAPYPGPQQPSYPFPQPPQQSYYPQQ
UniProt P02769, residues 25-607: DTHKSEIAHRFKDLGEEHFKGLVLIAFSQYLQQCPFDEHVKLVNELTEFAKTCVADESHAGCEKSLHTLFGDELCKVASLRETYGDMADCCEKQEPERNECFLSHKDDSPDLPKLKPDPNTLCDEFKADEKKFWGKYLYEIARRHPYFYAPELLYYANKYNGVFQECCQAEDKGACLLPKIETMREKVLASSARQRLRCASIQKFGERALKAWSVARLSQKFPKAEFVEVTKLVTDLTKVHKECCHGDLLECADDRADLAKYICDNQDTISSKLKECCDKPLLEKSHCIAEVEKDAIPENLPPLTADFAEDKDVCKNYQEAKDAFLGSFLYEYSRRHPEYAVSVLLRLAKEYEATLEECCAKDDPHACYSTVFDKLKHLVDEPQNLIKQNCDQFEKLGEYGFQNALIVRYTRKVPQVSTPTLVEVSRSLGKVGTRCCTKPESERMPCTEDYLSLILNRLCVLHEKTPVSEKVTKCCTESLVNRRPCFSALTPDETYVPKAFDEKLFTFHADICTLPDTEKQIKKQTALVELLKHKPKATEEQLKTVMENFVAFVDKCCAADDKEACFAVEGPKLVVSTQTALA

Albumin, 66 kDa (from UniProt P02769 25-607)
binding: no binding

Reference: article PMC9098882
